{"sequences": {"note": "By UniProt entry, the sequences of proteins in these tests, tags left out. Residues count along the entry.", "UniProt P36544, 23-502": "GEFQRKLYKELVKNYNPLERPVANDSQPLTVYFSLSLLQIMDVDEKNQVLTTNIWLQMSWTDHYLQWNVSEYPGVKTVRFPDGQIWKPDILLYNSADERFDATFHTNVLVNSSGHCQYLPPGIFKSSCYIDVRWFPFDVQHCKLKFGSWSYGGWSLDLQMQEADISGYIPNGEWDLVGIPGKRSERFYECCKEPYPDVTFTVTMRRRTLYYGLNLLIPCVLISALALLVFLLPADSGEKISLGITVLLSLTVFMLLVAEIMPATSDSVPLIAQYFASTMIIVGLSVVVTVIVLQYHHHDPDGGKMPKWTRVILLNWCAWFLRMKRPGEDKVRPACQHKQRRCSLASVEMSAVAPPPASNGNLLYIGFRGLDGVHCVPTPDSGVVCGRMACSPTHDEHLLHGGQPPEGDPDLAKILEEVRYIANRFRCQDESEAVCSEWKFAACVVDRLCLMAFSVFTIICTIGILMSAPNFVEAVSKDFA"}, "source": "patent US11155551B2", "about": "“Nicotinic acetylcholine receptor silent agonists” (University of Florida Research Foundation, Inc., priority 2015, dated 2021)", "target": "T1, human α7 nAChR (Homo sapiens, UniProt P36544)", "T1 construct": "expressed in transfected cells; host or cells: Xenopus oocytes", "experiment": "Two-electrode voltage clamping of human α7 nAChR expressed in Xenopus oocytes (net-charge / peak current relative to 60 μM ACh)", "assay_type": "cell-based", "description": "Electrophysiology: The panel of compounds synthesized was assayed using human α7 nAChR expressed in Xenopus oocytes and two-electrode voltage clamping. The partial agonism activity was evaluated, quantified as net-charge for 30 μM applications of compounds, measured relative to the control response to applications of 60 μM ACh. The induction of PAM-sensitive desensitization was detected as the net-charge responses when compounds were co-applied with the PAM PNU-120596 (30 μM compound+10 μM PNU-120596), measured relative to responses to 60 μM ACh applied alone. […] It is a unique property of α7 orthosteric agonist-induced currents that they vary systematically in the relationship between peak current and net charge as a function of the effective concentration applied (Papke & Papke (2002) Br. J. Pharm. 137: 49-61; Papke & Thinschmidt (1998) Neurosci. Let. 256: 163-166). This was due to the concentration-dependent desensitization of the receptors, which is likely to be associated with high levels of agonist binding site occupancy (Williams et al., (2011) J. Gen. Physiol. 137: 369-384) and is observed even when agonists are rapidly applied to small cells (Williams et al., (2012) Mol. Pharmacol. 82: 746-759) or acutely dissociated neurons (Uteshev et al., (2002) Brain Res. 948: 33-46). The control ACh concentration used for these experiments is roughly the EC80 for the net-charge responses.\nBy normalizing both the peak currents and net-charge measurements of the drug responses at the probe concentration of 30 μM (FIG. 3B) to those of the ACh control, the relationship between the probe concentration and the EC for each of the drugs was estimated (Papke, R. L. (2005) Life Sci.). […]\nBased on earlier experience this concentration is high enough to provide an observable response and low enough to avoid possible complications such as channel block. […] Data were expressed as the mean ±S.E.M. from at least four oocytes for each experiment and were plotted by Kaleidagraph (Abelbeck Software, Reading, Pa.).", "note": "For at least one compound, name, drawing or mass did not settle the structure.", "data": [{"smiles": "CC[N+]1(CC)CCN(c2ccccc2)CC1", "note": "[diEPP, 1,1-diethyl-4-phenylpiperazin-1-ium, reference compound]", "values": [{"measurement": "Potentiated response", "setting": "30 μM test compound + 10 μM PNU-120596 co-application, relative to 60 μM ACh control, mean ± SEM, N ≥ 4", "value": "1.3 ± 0.3"}, {"measurement": "PAM-dependent currents relative to ACh", "setting": "co-application with PNU-120596, meta-substituted series", "value": 1.33, "unit": "fold"}, {"measurement": "Relative response", "setting": "net-charge response to 30 μM test compound alone, relative to 60 μM ACh control, mean ± SEM, N ≥ 4", "value": "0.002 ± 0.003"}]}]}
